In publication doi:10.1101/2021.08.16.456582 one finds binding data, which are given here for two molecules.

No constants are given. Whether binding was seen depends on the method and setting. Binding seen in cells or lysates may run through a third protein. Some binding calls cover weakened binding; strength is not graded here.

For test [1], the target named is T1, 3xHA-RILPL (RILP-like, the fly RILP) (Drosophila) (UniProt O76878).
T1 sequence: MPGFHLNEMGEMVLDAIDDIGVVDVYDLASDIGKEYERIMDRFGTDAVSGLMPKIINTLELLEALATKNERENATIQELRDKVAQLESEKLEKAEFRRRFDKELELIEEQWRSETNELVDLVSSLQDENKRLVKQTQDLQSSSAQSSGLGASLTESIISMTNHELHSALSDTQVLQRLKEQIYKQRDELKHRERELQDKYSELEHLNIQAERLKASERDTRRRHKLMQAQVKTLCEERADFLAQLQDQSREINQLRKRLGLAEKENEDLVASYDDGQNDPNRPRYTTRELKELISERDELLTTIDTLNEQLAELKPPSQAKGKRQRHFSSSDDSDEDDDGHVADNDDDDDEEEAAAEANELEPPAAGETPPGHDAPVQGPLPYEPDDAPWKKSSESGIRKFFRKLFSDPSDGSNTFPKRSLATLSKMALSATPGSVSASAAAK
The test is described as follows: co-IP.

The target of test [2] is T2, 3xHA-RILPL (RILP-like, the fly RILP) (Drosophila), O76878.
T2 chain: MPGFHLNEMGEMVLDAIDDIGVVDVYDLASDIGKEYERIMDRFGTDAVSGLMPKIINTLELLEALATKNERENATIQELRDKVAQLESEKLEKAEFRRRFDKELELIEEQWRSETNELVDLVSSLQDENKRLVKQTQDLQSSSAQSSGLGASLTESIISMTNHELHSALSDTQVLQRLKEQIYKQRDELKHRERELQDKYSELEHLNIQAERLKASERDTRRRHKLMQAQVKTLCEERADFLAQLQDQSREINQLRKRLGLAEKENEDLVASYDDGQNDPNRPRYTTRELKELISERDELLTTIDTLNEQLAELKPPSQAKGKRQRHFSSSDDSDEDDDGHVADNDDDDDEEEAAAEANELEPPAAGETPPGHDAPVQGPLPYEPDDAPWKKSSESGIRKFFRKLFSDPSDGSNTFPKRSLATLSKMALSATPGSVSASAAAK
The test is described as follows: co-IP. The conditions noted are these: remark: other sources report otherwise.

“3xFlag-Rab7^Q67L (from UniProt O76742 1-207)”: the binding entry in test [1] was “binds”.

B1: Rab7 (endogenous, adult fly brain), O76742 1-207 (protein)
chain: MSGRKKSLLKVIILGDSSVGKTSLMNQYVNKRFSNQYKATIGADFCTKEVVVNDRVVTMQIWDTAGQERFQSLGVAFYRGADCCVLVYDVTAPNSFKNLDSWRDEFLIQASPRDPDHFPFVVLGNKVDLDNRQVSTRRAQQWCQSKNDIPYYETSAKEGINVEMAFQVIAKNALELEAEAEVINDFPDQITLGSQNNRPGNPDNCQC
On to B1, for which, in test [2], the binding entry was “binds”.
